Measurements reported in PubChem BioAssay AID743121 (NCATS, 2013)

Aim: 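Knock-downs that sensitise breast cancer cells to camptothecin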 (primary screen)
Cell system: MDA-MB-231 cells, a human breast cancer line
Reagents: single siRNA against human genes, 20 nM siRNA (0.8 pmol per well)
Timing: 120 h (drug added 48 h after transfection, read 72 h later)
Challenge: camptothecin 20 nM (about EC30) for 72 h; vehicle 0.1% DMSO in parallel plates
Detection: 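CellTiter-Glo ATP signal, scaled to control siRNA as percent viability; sensitisation given as log2 of untreated divided by camptothecin-treated viability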
Direction: log2 vehicle/camptothecin viability: higher = stronger sensitisation to camptothecin; viability with camptothecin: higher = more viable cells
Hit rule: 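Each gene scored by redundant siRNA activity (RSA) over its individual siRNA ratios; a gene is called active at p < 0.001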
Here is a random part of about 26,000 reagents tested. 167 of them (0.63%) count as active. 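Calls are per gene from RSA p-values that are not deposited; an individual active-marked siRNA can sensitise only weakly.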 Entries without a mark were called inactive. The numbers tell different reagents against one gene apart. Not all columns of the deposit are shown.

gene knocked down,reagent no.,log2 vehicle/camptothecin viability,viability with camptothecin (% of control)
XRCC5 (X-ray repair cross complementing 5),1,-0.231,112
XRCC5 (X-ray repair cross complementing 5),2,0.258,9.97
XRCC5 (X-ray repair cross complementing 5),3,-0.0384,90.9
XRCC5 (X-ray repair cross complementing 5),4,0.544,52.5
KCNJ15 (potassium inwardly rectifying channel subfamily J member 15),1,0.0165,107
KCNJ15 (potassium inwardly rectifying channel subfamily J member 15),2,-0.436,90.2
KCNJ15 (potassium inwardly rectifying channel subfamily J member 15),3,-0.198,48
KCNJ15 (potassium inwardly rectifying channel subfamily J member 15),4,-0.107,78.7
GRIK5 (glutamate ionotropic receptor kainate type subunit 5),1,0.0142,58.3
GRIK5 (glutamate ionotropic receptor kainate type subunit 5),2,-0.337,48.8
GRIK5 (glutamate ionotropic receptor kainate type subunit 5),3,0.00236,89.4
GRIK5 (glutamate ionotropic receptor kainate type subunit 5),4,-0.417,100
LIN7C (lin-7 cell polarity scaffold C),1,-0.241,104
LIN7C (lin-7 cell polarity scaffold C),2,-0.0806,64.1
LIN7C (lin-7 cell polarity scaffold C),3,-0.032,104
LIN7C (lin-7 cell polarity scaffold C),4,-0.156,85.3
ANKMY1 (ankyrin repeat and MYND domain containing 1),1,0.713,41
ANKMY1 (ankyrin repeat and MYND domain containing 1),2,0.0573,73.8
ANKMY1 (ankyrin repeat and MYND domain containing 1),3,-0.224,93.1
ANKMY1 (ankyrin repeat and MYND domain containing 1),4,-0.5,80.4
IRS4 (insulin receptor substrate 4),1,0.023,88.8
IRS4 (insulin receptor substrate 4),2,-0.427,84.9
IRS4 (insulin receptor substrate 4),3,-0.0727,99.9
IRS4 (insulin receptor substrate 4),4,-0.42,98.5
EYS (EGF-like photoreceptor maintenance factor),1,-0.14,88.2
EYS (EGF-like photoreceptor maintenance factor),2,-0.137,121
EYS (EGF-like photoreceptor maintenance factor),3,-0.242,80.9
EYS (EGF-like photoreceptor maintenance factor),4,0.0613,107
PTPRD (protein tyrosine phosphatase receptor type D),1,-0.33,108
PTPRD (protein tyrosine phosphatase receptor type D),2,0.0832,88.8
PTPRD (protein tyrosine phosphatase receptor type D),3,-0.354,72.1
PTPRD (protein tyrosine phosphatase receptor type D),4,-0.286,62.1
CELSR3 (cadherin EGF LAG seven-pass G-type receptor 3),1,0.369,37.4
CELSR3 (cadherin EGF LAG seven-pass G-type receptor 3),2,0.053,97.7
CELSR3 (cadherin EGF LAG seven-pass G-type receptor 3),3,-0.388,121
CELSR3 (cadherin EGF LAG seven-pass G-type receptor 3),4,-0.226,52.5
"PPM1M (protein phosphatase, Mg2+/Mn2+ dependent 1M)",1,-0.38,77.1
"PPM1M (protein phosphatase, Mg2+/Mn2+ dependent 1M)",2,-0.173,97.5
"PPM1M (protein phosphatase, Mg2+/Mn2+ dependent 1M)",3,-0.00951,88.1
"PPM1M (protein phosphatase, Mg2+/Mn2+ dependent 1M)",4,-0.277,66.2
KIF1C (kinesin family member 1C),1,-0.267,111
KIF1C (kinesin family member 1C),2,-0.119,86.9
KIF1C (kinesin family member 1C),3,-0.742,69
KIF1C (kinesin family member 1C),4,0.0592,40.2
SPAST (spastin),1,0.00846,91.7
SPAST (spastin),2,-0.243,66.4
SPAST (spastin),3,-0.335,107
SPAST (spastin),4,0.453,43
PLCG1 (phospholipase C gamma 1),1,0.279,65.7
PLCG1 (phospholipase C gamma 1),2,-0.0903,61.8
PLCG1 (phospholipase C gamma 1),3,0.0431,69.5
PLCG1 (phospholipase C gamma 1),4,-0.00187,97.8
SF3A1 (splicing factor 3a subunit 1),1,0.239,49.7
SF3A1 (splicing factor 3a subunit 1),2,-0.45,32.2
SF3A1 (splicing factor 3a subunit 1),3,-0.381,18.3
IFNAR2 (interferon alpha and beta receptor subunit 2),1,-0.125,95.7
IFNAR2 (interferon alpha and beta receptor subunit 2),2,-0.0754,88.4
IFNAR2 (interferon alpha and beta receptor subunit 2),3,-0.12,89.3
IFNAR2 (interferon alpha and beta receptor subunit 2),4,-0.131,89.5
PTN (pleiotrophin),1,0.318,56.1
PTN (pleiotrophin),2,-0.0848,43.7
PTN (pleiotrophin),3,0.181,54.8
PTN (pleiotrophin),4,0.242,35.9
SNAI1 (snail family transcriptional repressor 1),1,-0.391,81
SNAI1 (snail family transcriptional repressor 1),2,0.177,62.6
SNAI1 (snail family transcriptional repressor 1),3,-0.0909,81.1
PTPRA (protein tyrosine phosphatase receptor type A),1,-0.549,71.6
PTPRA (protein tyrosine phosphatase receptor type A),2,-0.398,119
PTPRA (protein tyrosine phosphatase receptor type A),3,-0.237,71.7
PTPRA (protein tyrosine phosphatase receptor type A),4,-0.233,91.4

Targets listed so far whose target name begins with X or x (4):
gene knocked down,reagent no.,log2 vehicle/camptothecin viability,viability with camptothecin (% of control)
XRCC5 (X-ray repair cross complementing 5),1,-0.231,112
XRCC5 (X-ray repair cross complementing 5),2,0.258,9.97
XRCC5 (X-ray repair cross complementing 5),3,-0.0384,90.9
XRCC5 (X-ray repair cross complementing 5),4,0.544,52.5
